Paper PMC3962495
No constants are given. Whether binding was seen depends on the method and setting. Binding seen in cells or lysates may run through a third protein. Some binding calls cover weakened binding; strength is not graded here. One block for each substance: values may come before it.

Protein sequences, listed by entry. Tags and fused reporters are not part of them. Lines headed by an entry give the natural chain unless they say otherwise; changes in a name come on top.
UniProt P25685: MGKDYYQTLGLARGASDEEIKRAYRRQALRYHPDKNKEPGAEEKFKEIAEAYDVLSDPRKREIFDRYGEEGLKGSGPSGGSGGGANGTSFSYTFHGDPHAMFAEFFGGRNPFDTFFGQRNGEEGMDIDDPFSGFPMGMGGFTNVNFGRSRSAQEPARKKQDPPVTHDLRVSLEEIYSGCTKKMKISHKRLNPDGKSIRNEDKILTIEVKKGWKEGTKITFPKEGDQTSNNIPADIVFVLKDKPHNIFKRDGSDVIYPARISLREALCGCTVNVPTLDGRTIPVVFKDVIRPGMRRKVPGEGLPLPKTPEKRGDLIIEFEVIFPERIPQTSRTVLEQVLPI
UniProt P14618: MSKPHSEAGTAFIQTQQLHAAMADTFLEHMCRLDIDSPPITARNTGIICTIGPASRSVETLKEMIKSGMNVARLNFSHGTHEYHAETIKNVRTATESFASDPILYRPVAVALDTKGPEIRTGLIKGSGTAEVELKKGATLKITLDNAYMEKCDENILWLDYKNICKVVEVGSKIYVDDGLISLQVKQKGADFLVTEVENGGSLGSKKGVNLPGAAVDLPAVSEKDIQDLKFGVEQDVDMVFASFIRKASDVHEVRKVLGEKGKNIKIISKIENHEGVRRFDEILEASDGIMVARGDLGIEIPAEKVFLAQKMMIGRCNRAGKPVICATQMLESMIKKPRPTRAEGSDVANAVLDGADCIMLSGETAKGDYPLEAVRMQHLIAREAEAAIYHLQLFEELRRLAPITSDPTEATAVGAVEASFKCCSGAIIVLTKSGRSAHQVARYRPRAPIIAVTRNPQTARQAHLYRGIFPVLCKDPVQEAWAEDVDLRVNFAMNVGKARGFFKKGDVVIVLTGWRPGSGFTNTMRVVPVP
UniProt P11142: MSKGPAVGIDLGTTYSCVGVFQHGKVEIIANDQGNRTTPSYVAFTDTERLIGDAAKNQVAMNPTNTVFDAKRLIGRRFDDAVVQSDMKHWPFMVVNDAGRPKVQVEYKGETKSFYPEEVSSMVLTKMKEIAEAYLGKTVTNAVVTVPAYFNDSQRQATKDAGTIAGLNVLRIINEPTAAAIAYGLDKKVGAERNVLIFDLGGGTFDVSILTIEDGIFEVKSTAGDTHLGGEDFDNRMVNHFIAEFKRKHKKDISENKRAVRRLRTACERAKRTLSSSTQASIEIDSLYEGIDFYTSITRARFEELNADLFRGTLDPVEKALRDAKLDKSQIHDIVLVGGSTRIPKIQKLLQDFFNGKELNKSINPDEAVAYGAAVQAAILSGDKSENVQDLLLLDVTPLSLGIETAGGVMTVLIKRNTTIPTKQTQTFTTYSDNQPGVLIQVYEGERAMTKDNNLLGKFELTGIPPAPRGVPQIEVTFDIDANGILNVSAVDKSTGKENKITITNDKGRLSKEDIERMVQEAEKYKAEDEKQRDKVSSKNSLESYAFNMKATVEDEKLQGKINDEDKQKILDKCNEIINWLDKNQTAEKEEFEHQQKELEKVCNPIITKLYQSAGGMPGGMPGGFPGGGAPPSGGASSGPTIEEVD

Tests used:
[1] = target: Flag-HSP40 (full-length HSP40/DNAJB1) (human) (UniProt P25685); test: co-IP; HEK293T cells co-transfected with HA- and Flag-tagged proteins; whole cell lysate with anti-HA or anti-Flag antibody and protein A plus-agarose overnight at 4 °C; blot for the other tag
[2] = target: endogenous HSP40 of HeLa cells (human (endogenous in HeLa)) (UniProt P25685); test: co-IP; endogenous proteins of HeLa cell lysate; anti-PKM2 or anti-HSP40 antibody and protein A plus-agarose overnight at 4 °C; blot with anti-PKM2 and anti-HSP40
[3] = target: HA-PKM2 (full-length pyruvate kinase M2) (human) (UniProt P14618); test: co-IP; HEK293T cells co-transfected with HA- and Flag-tagged proteins; whole cell lysate with anti-HA or anti-Flag antibody and protein A plus-agarose overnight at 4 °C; blot for the other tag
[4] = target: endogenous PKM2 of HeLa cells (human (endogenous in HeLa)) (UniProt P14618); test: co-IP; endogenous proteins of HeLa cell lysate; anti-PKM2 or anti-HSP40 antibody and protein A plus-agarose overnight at 4 °C; blot with anti-PKM2 and anti-HSP40

binding [3]: binds
Substance: Flag-HSP40 (full-length HSP40/DNAJB1) (from UniProt P25685-1 1-340)

binding [4]: binds
Substance: endogenous HSP40 of HeLa cells (from UniProt P25685 1-340)

Further lines, the substance ahead of its results:

Substance: HA-PKM2 (full-length pyruvate kinase M2) (from UniProt P14618 1-531)
binding [1]: binds

Substance: endogenous PKM2 of HeLa cells (from UniProt P14618 1-531)
binding [2]: binds

Substance: HA-HSC70 (full-length HSC70) (from UniProt P11142 1-646)
binding [1]: binds
